Three molecules from PubChem BioAssay AID248 (DTP/NCI, 2004) can be followed below.

The list does not hold the whole screen: it is rich in T/C values a quarter to a half above the control, in often repeated tests (any T/C) and in doses without a T/C. Other doses and runs of a compound stand elsewhere. T/C: endpoint of the treated group in % of that of the vehicle group. Some doses have a count of surviving animals in place of a T/C: the source holds a T/C of zero for them, seemingly a mark for toxic or unscored doses. Some doses without a T/C left all or most animals alive at the check, yet need not have been tolerated: the source hardly ever lists a survival T/C far under the control, and the zero likely stands for such cases as well. Counts of survivors are from the toxicity check (mostly the fifth day) where no day follows; animals may have died later. Schedules are NCI's codes, taken here to give the interval after Q, in days (D) or hours (H), and the number of doses after X. Some entries hold several experiments; their values stand side by side, smallest first. Some schedules carry Z or #; the key to these is not given. For survival time, the PubChem record calls one and a half times the control and up active, and a quarter to a half above the control has no call in these data; cut-offs in other NCI protocols can differ. Some T/C values are followed by the survivors on the day toxicity was checked, most often the fifth; where none is given, no animal had died by that day.

For this experiment, the system named is L1210 leukemia ip in BDF1 mice, survival T/C. Kind of experiment: NCI In Vivo Anticancer Drug Screen. Data for tumor model L1210 Leukemia (intraperitoneal) in B6D2F1 (BDF1) mice. The conditions noted are these: higher T/C = longer survival.

In the case of `c1cc2n(n1)CCN2`, the T/C is 126 % of control (T/C endpoint: mean survival time, dose: 150.0 mg/kg/injection, schedule: Q01DX009 (ip), vehicle: water); 126 [5 of 6 alive] and 142 % of control (T/C endpoint: mean survival time, dose: 200.0 mg/kg/injection, schedule: Q01DX009 (ip), vehicle: saline); 131 % of control (T/C endpoint: mean survival time, dose: 200.0 mg/kg/injection, schedule: Q01DX009 (ip), vehicle: water); 138 % of control (T/C endpoint: mean survival time, dose: 200.0 mg/kg/injection, schedule: Q04DX003 (ip), vehicle: water); 142 % of control (T/C endpoint: mean survival time, dose: 240.0 mg/kg/injection, schedule: Q04DX003 (ip), vehicle: water); 126 % of control (T/C endpoint: mean survival time, dose: 270.0 mg/kg/injection, schedule: Q04DX003 (ip), vehicle: saline). For the same molecule, the T/C runs as follows: (T/C endpoint: mean survival time, dose: 400.0 mg/kg/injection, schedule: Q01DX001 (sc), vehicle: saline) 126 % of control; (T/C endpoint: mean survival time, dose: 400.0 mg/kg/injection, schedule: Q04DX003 (ip), vehicle: saline, evaluated on day 30) 100, 104, 127 [5 of 6 alive], 143, 153 % of control [5 of 6 alive]; (T/C endpoint: mean survival time, dose: 400.0 mg/kg/injection, schedule: Q04DX003 (ip), vehicle: saline, evaluated on day 45) 147 % of control; (T/C endpoint: mean survival time, dose: 400.0 mg/kg/injection, schedule: Q04DX003 (oral), vehicle: saline) 140 % of control; (T/C endpoint: mean survival time, dose: 400.0 mg/kg/injection, schedule: Q04DX003 (sc), vehicle: saline) 130 % of control; (T/C endpoint: mean survival time, dose: 800.0 mg/kg/injection, schedule: Q01DX001 (sc), vehicle: saline) 131 % of control [5 of 6 alive]. For the same molecule, the T/C is, setting by setting: (T/C endpoint: median survival time, dose: 44.0 mg/kg/injection, schedule: Q03HX024 (ip), vehicle: saline) 131 % of control; (T/C endpoint: median survival time, dose: 66.0 mg/kg/injection, schedule: Q03HX024 (ip), vehicle: saline) 144 % of control; (T/C endpoint: median survival time, dose: 100.0 mg/kg/injection, schedule: Q01DX009 (oral), vehicle: saline) 128 % of control [5 of 6 alive]; (T/C endpoint: median survival time, dose: 200.0 mg/kg/injection, schedule: Q01DX005 (ip), vehicle: saline) 133 % of control; (T/C endpoint: median survival time, dose: 200.0 mg/kg/injection, schedule: Q01DX009 (ip), vehicle: saline) 135 % of control; (T/C endpoint: median survival time, dose: 200.0 mg/kg/injection, schedule: Q01DX009 (oral), vehicle: saline) 125 % of control. For the same molecule, the T/C is, setting by setting: (T/C endpoint: median survival time, dose: 200.0 mg/kg/injection, schedule: Q04DX003 (ip), vehicle: Klucel (hydroxypropylcellulose) (HPC)) 127 % of control; (T/C endpoint: median survival time, dose: 200.0 mg/kg/injection, schedule: Q04DX003 (ip), vehicle: saline, evaluated on day 5) 126 % of control; (T/C endpoint: median survival time, dose: 200.0 mg/kg/injection, schedule: Q04DX003 (ip), vehicle: saline, evaluated on day 27) 126 % of control; (T/C endpoint: median survival time, dose: 200.0 mg/kg/injection, schedule: Q04DX003 (ip), vehicle: saline, evaluated on day 30) 111 % of control; (T/C endpoint: median survival time, dose: 200.0 mg/kg/injection, schedule: Q04DX003 (ip), vehicle: saline, evaluated on day 45) 122 % of control; (T/C endpoint: median survival time, dose: 200.0 mg/kg/injection, schedule: Q04DX003 (sc), vehicle: saline) 130 % of control. The T/C was 120 and 141 % of control (T/C endpoint: median survival time, dose: 200.0 mg/kg/injection, schedule: Q08DX002 (ip), vehicle: saline, evaluated on day 30); 122 % of control (T/C endpoint: median survival time, dose: 200.0 mg/kg/injection, schedule: Q08DX002 (ip), vehicle: saline, evaluated on day 40); 127 % of control (T/C endpoint: median survival time, dose: 200.0 mg/kg/injection, schedule: Q08DX002 (ip), vehicle: saline, evaluated on day 45); 125 % of control (T/C endpoint: median survival time, dose: 200.0 mg/kg/injection, schedule: Q08DX002 (sc), vehicle: saline); 135 % of control (T/C endpoint: median survival time, dose: 300.0 mg/kg/injection, schedule: Q04DX003 (ip), vehicle: saline); 129 % of control (T/C endpoint: median survival time, dose: 300.0 mg/kg/injection, schedule: Q08DX002 (ip), vehicle: saline). Also, the T/C (T/C endpoint: median survival time, dose: 400.0 mg/kg/injection, schedule: Q04DX003 (ip), vehicle: saline) was 133 % of control; the T/C (T/C endpoint: median survival time, dose: 400.0 mg/kg/injection, schedule: Q08DX002 (ip), vehicle: saline, evaluated on day 30) was 139 % of control; the T/C (T/C endpoint: median survival time, dose: 400.0 mg/kg/injection, schedule: Q08DX002 (ip), vehicle: saline, evaluated on day 40) was 144 % of control; the T/C (T/C endpoint: median survival time, dose: 400.0 mg/kg/injection, schedule: Q08DX002 (sc), vehicle: saline) is 135 % of control; the T/C (T/C endpoint: median survival time, dose: 440.0 mg/kg/injection, schedule: Q04DX003 (ip), vehicle: saline) is 148 % of control; the T/C (T/C endpoint: median survival time, dose: 440.0 mg/kg/injection, schedule: Q08DX002 (ip), vehicle: saline) is 134 % of control. Besides, the T/C runs as follows: (T/C endpoint: median survival time, dose: 500.0 mg/kg/injection, schedule: Q04DX003 (ip), vehicle: saline) 145 % of control [7 of 8 alive]; (T/C endpoint: median survival time, dose: 600.0 mg/kg/injection, schedule: Q08DX002 (ip), vehicle: saline) 125 % of control [6 of 8 alive]; (T/C endpoint: median survival time, dose: 660.0 mg/kg/injection, schedule: Q04DX003 (ip), vehicle: saline) 144 % of control; (T/C endpoint: median survival time, dose: 666.0 mg/kg/injection, schedule: Q01DX001 (ip), vehicle: saline) 134 % of control [9 of 10 alive]; (T/C endpoint: median survival time, dose: 1000.0 mg/kg/injection, schedule: Q01DX001 (ip), vehicle: saline) 144 % of control [8 of 10 alive]. Besides, the survivor count (T/C endpoint: mean survival time, dose: 202.0 mg/kg/injection, schedule: Q01DX Z (ip), vehicle: methylcellulose (MC)) was 3 of 6; the survivor count (T/C endpoint: mean survival time, dose: 300.0 mg/kg/injection, schedule: Q01DX009 (ip), vehicle: water) was 1 of 6; the survivor count (T/C endpoint: mean survival time, dose: 400.0 mg/kg/injection, schedule: Q01DX009 (ip), vehicle: saline) was 2 of 6; the survivor count (T/C endpoint: mean survival time, dose: 400.0 mg/kg/injection, schedule: Q01DX009 (ip), vehicle: water) is 3 of 6; the survivor count (T/C endpoint: mean survival time, dose: 666.0 mg/kg/injection, schedule: Q04DX003 (ip), vehicle: water) is 3 of 6; the survivor count (T/C endpoint: mean survival time, dose: 800.0 mg/kg/injection, schedule: Q04DX003 (sc), vehicle: saline) is 4 of 6. The survivor count is, setting by setting: (T/C endpoint: mean survival time, dose: 1600.0 mg/kg/injection, schedule: Q01DX001 (oral), vehicle: saline) 2 of 6; (T/C endpoint: mean survival time, dose: 1600.0 mg/kg/injection, schedule: Q04DX003 (oral), vehicle: saline) 1 of 6 and 2 of 6; (T/C endpoint: median survival time, dose: 400.0 mg/kg/injection, schedule: Q01DX005 (ip), vehicle: saline) 4 of 6; (T/C endpoint: median survival time, dose: 400.0 mg/kg/injection, schedule: Q01DX009 (ip), vehicle: saline) 2 of 6; (T/C endpoint: median survival time, dose: 400.0 mg/kg/injection, schedule: Q01DX009 (oral), vehicle: saline) 0 of 6 and 4 of 8; (T/C endpoint: median survival time, dose: 400.0 mg/kg/injection, schedule: Q01DX009 (sc), vehicle: saline) 0 of 8. For the same molecule, the survivor count reads like this: (T/C endpoint: median survival time, dose: 800.0 mg/kg/injection, schedule: Q01DX005 (ip), vehicle: saline) 0 of 6; (T/C endpoint: median survival time, dose: 800.0 mg/kg/injection, schedule: Q04DX003 (ip), vehicle: Klucel (hydroxypropylcellulose) (HPC)) 4 of 6; (T/C endpoint: median survival time, dose: 800.0 mg/kg/injection, schedule: Q04DX003 (ip), vehicle: saline) 5 of 8; (T/C endpoint: median survival time, dose: 800.0 mg/kg/injection, schedule: Q04DX003 (oral), vehicle: saline) 4 of 8 and 6 of 6; (T/C endpoint: median survival time, dose: 800.0 mg/kg/injection, schedule: Q04DX003 (sc), vehicle: saline) 6 of 8; (T/C endpoint: median survival time, dose: 800.0 mg/kg/injection, schedule: Q08DX002 (ip), vehicle: saline) 4 of 6. The survivor count reads like this: (T/C endpoint: median survival time, dose: 800.0 mg/kg/injection, schedule: Q08DX002 (oral), vehicle: saline) 0 of 6 and 5 of 8; (T/C endpoint: median survival time, dose: 800.0 mg/kg/injection, schedule: Q08DX002 (sc), vehicle: saline) 6 of 8; (T/C endpoint: median survival time, dose: 833.0 mg/kg/injection, schedule: Q04DX003 (ip), vehicle: saline) 4 of 8.

Turning to `C/C=C1\C(=O)O[C@@]23C=C[C@H]4C(C(=O)OC)=CO[C@@H](O[C@H]12)[C@H]43`, the survivor count (T/C endpoint: mean survival time, dose: 80.0 mg/kg/injection, schedule: Q01DX001 (ip), vehicle: saline) is listed as 3 of 6.

On to `NC(=O)N/N=C(/CBr)c1ccc(-c2ccccc2)cc1`, for which the survivor count is 3 of 6 (T/C endpoint: mean survival time, dose: 200.0 mg/kg/injection, schedule: Q01DX001 (ip), vehicle: saline) and 0 of 6 (T/C endpoint: mean survival time, dose: 400.0 mg/kg/injection, schedule: Q01DX001 (ip), vehicle: saline).
